Measured values: PubChem BioAssay AID1489 (National Center for Advancing Translational Sciences (NCATS), 2009)
The inconclusive results got no clear call from the source; some entries with a clear call stand among them for comparison. A potency beside an inconclusive call is a rough fit, not a confirmed value. Activity calls are given as the source filed them. Calls follow the shape of the dose curve; as a rule, active = well fitted antagonist curve with a large enough effect in the main read-out, with a control signal flat; inconclusive = small, poorly fitted or top-dose-only effect; inactive = no such curve, though single readings can be large or run the other way.

Amino acid sequences for entries named in this document (tags omitted). A change or cut given only in a name is not applied to a line headed by its entry.
UniProt Q6W5P4: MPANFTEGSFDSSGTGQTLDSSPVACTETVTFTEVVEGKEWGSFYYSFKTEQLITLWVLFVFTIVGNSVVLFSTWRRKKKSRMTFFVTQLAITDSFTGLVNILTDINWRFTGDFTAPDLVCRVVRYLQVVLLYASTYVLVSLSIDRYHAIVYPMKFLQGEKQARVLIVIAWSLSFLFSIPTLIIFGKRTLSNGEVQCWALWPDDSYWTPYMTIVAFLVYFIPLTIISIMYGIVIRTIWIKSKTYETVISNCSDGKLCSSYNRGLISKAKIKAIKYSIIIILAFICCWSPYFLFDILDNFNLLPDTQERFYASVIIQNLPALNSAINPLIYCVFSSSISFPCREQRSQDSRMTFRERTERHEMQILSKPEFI

molecular target: Neuropeptide S receptor (Homo sapiens) (UniProt Q6W5P4); assay: Confirmation Concentration-Response Assay for Antagonists of the Neuropeptide S Receptor: Calcium Signal Transduction; settings: CHO-NPSR cells, NPS-induced calcium flux, FDSS; activity change, negative = inhibition: at 19.3 µM (top of the series)
Summary of the method: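 Calcium flux was measured by kinetic fluorescence in dye-loaded CHO-NPSR cells, first after compound addition (210 s), then after NPS challenge (60 nM in stimulation reagent, 140 s). Hill-equation fitting gave AC50.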

Row | SMILES | Potency | activity change, negative = inhibition
1 | COc1ccc(N2C3=C(CC4=C2CC(C)(C)CC4=O)C(=O)CC(C)(C)C3)cc1 | inconclusive: 11.2 µM [antagonist, single point] | 
2 | Cc1nc(NC(=S)Nc2ccccc2)sc1C | inconclusive: 3.55 µM [antagonist, single point] | 
3 | COc1ccc(C2c3c(ncn(CCN4CCOCC4)c3=N)Oc3ccc4ccccc4c32)cc1OC (configuration not stated) | active: 1.58 µM | 
4 | Cc1ccc2c(CSc3nc4nc(C)cc(C)n4n3)cc(=O)oc2c1 | inconclusive: 4.47 µM [antagonist, full curve] | 
5 | CN(C)C=Nc1c(Br)cc(Br)c2nonc12 | inconclusive: 3.98 µM [falling, full curve] | 
6 | O=c1cc(-c2c(F)c(F)c(F)c(F)c2F)oc2c(F)c(F)c(F)c(F)c12 | inconclusive: 2.51 µM [antagonist, full curve, poor fit] | 
7 | CCCCNS(=O)(=O)c1ccc2nc(-c3cccnc3)cc(C(=O)NC(C)CC)c2c1 (configuration not stated) | inconclusive: 3.55 µM [antagonist, partial curve, poor fit] | 
8 | Cn1nc(-c2ccc(Cl)cc2)nc2c(=O)n(C)c(=O)nc1-2 | inactive | 
9 | COc1ccc(/C=N/n2cncn2)cc1Cn1cc([N+](=O)[O-])cn1 | inconclusive: 0.501 µM [antagonist, full curve] | 
10 | O=C(CSc1cccc[n+]1[O-])Nc1ccccc1Oc1ccccc1 | inconclusive: 0.0126 µM [antagonist, full curve, poor fit] | 
11 | CC(C)Cc1nc(N2CCN(C(=O)c3ccccc3)CC2)c(C#N)c2c1CCC2 | inactive | 
12 | COc1cccc(N2CCN(c3ncnc4c3[nH]c3ccc(F)cc34)CC2C)c1 (configuration not stated) | active: 0.631 µM | 
13 | CCOc1ccc(-n2c(=S)sc3c(=O)[nH]c(SCC(=O)C(C)(C)C)nc32)cc1 | inconclusive: 2.24 µM [antagonist, full curve, poor fit] | 
14 | CS(=O)(=O)c1nc(-c2ccccc2)cc(C(F)(F)F)n1 | active: 7.94 µM | 
15 | COc1ccc(OC2C(=O)N(c3ccc(F)cc3)C2c2ccc(OC)c(OC)c2)cc1 (configuration not stated) | inconclusive: 7.94 µM [antagonist, partial curve] | 
16 | COc1ccc(OC)c(C2C(C(=O)Nc3nc4ccccc4s3)=C(C)NC3=C2C(=O)CCC3)c1 (configuration not stated) | active: 2.82 µM | 

Three of the compounds above, as labelled records.
COc1ccc(N2C3=C(CC4=C2CC(C)(C)CC4=O)C(=O)CC(C)(C)C3)cc1
  Potency: inconclusive: 11.2 µM [antagonist, single point]
Cc1nc(NC(=S)Nc2ccccc2)sc1C
  Potency: inconclusive: 3.55 µM [antagonist, single point]
COc1cccc(N2CCN(c3ncnc4c3[nH]c3ccc(F)cc34)CC2C)c1 (configuration not stated)
  Potency: active: 0.631 µM

(list continues)

Row | SMILES | Potency | activity change, negative = inhibition
17 | COc1cccc(C(=O)/C=C/Nc2ccc(S(=O)(=O)Nc3cccc(C(C)=O)c3)cc2)c1 | inconclusive: 14.1 µM [antagonist, partial curve, poor fit] | 
18 | Cc1cccnc1Nc1nc(-c2ccccn2)cs1 | inconclusive: 0.00447 µM [antagonist, full curve, poor fit] | 
19 | COc1ccc(N(CC(=O)Nc2cccc(SC)c2)S(C)(=O)=O)cc1Cl | inactive | 
20 | Cc1cc(OCC(=O)c2ccc(Br)cc2)ccc1N1C(=O)CCC1=O | inactive | 
21 | O=C(COC(=O)c1ccccc1C(=O)c1ccc(Cl)c([N+](=O)[O-])c1)NC1CCCCCC1 | active: 4.47 µM | 
22 | O=c1oc2ccccc2n1CCCCCn1c(=O)oc2ccccc21 | inconclusive: 5.01 µM [antagonist, full curve] | 
23 | O=C(CSc1ncnc2ccccc12)Nc1ccc(N2CCOCC2)cc1 |  | inconclusive: -12.4%
24 | O=C(Nc1nccs1)C1CCCN1S(=O)(=O)c1ccc(Cl)cc1 (configuration not stated) | inactive | 
25 | O=[N+]([O-])c1ccc(N=Nc2ccc(O)cc2O)cc1 | inconclusive: 0.891 µM [antagonist, full curve, poor fit] | 
26 | COc1ccc(CCNC(=O)CC(c2ccccc2)c2cccc(C)c2O)cc1OC (configuration not stated) | inconclusive: 0.000112 µM [antagonist, full curve, poor fit] | 
27 | Cc1cc(C)n(-c2nc(Nc3ccccc3C(F)(F)F)nc(-n3nc(C)cc3C)n2)n1 | inconclusive: 11.2 µM [antagonist, partial curve, poor fit] | 
28 | COc1cccc2sc(Nc3nc(-c4ccccn4)cs3)nc12 | active: 3.16 µM | 
29 | CC1CCN(S(=O)(=O)c2ccc(C(=O)Nc3sccc3C(N)=O)cc2)CC1 | inconclusive: 11.2 µM [antagonist, partial curve, poor fit] | 
30 | CC(=O)c1sc(N/N=C\c2ccccc2O)nc1C | active: 1.12 µM | 
31 | C=CCOc1c(Cl)cc(CNc2ccc(N(C)C)cc2)cc1OC | inactive | 
32 | O=[N+]([O-])c1cc2c(cc1/C=N/n1c(-c3ccccc3)n[nH]c1=S)OCO2 | inactive | 
